These results are taken from paper PMC10822852, “Structural and biochemical insights into the mechanism of the Gabija bacterial immunity system” (Nature Communications, 2024).

Results are given in words; binding and its absence hold for the method and conditions named. Some entries that bind do so weakly or less than the wild type.

The target of assay [1] is T1, GajA (Bacillus cereus VD045) (UniProt J8H9C1).
T1 sequence: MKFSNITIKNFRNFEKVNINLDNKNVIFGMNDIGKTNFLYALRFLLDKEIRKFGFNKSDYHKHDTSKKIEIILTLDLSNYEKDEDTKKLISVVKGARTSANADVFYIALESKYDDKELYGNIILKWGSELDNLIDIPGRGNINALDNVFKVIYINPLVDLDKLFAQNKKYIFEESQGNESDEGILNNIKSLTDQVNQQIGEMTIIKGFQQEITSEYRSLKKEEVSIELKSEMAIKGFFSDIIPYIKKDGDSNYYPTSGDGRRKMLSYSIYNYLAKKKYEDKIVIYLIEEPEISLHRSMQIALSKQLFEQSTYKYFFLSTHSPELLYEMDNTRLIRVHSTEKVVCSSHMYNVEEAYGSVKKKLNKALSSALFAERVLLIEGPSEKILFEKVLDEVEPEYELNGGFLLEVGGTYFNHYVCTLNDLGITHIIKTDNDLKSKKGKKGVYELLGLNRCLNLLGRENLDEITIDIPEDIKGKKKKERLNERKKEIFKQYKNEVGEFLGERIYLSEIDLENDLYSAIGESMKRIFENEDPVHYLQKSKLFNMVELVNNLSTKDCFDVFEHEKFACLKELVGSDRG
The assay can be described thus: SEC; size exclusion chromatography of GajA with the NTR or the CTR construct of GajB (Supplementary Fig. 5a, b); conditions not given.

The target in assay [2] is T1, GajA (Bacillus cereus VD045). The assay can be described thus: cryo-EM structure; Gabija complex (GajA with GajB, co-expressed and co-purified), 0.5 mg/ml in 100 mM NaCl, single particle analysis with D2 symmetry, 3.6 Å; both purified.
Assay [3] has the same target. Nature of the assay: SEC-MALS; Superdex 200 10/300 Increase, samples injected at 1 mg/ml in Buffer B (10 mM Tris-HCl pH 7.5, 300 mM NaCl, 2 mM DTT), 0.5 ml/min; GajA, GajB and the co-purified Gabija complex; both purified. On the technique in general: In gel filtration, larger molecules generally elute earlier.

B1: NTR region of GajB (N-terminal region, residues 1-223) (domain or fragment, UniProt J8HQ06 1-223)
chain: MSREQIIKDGGNILVTAGAGSGKTTILVSKIEADLKENKTHYSIAAVTFTNKAAKEIEGRLGYSSRGNFIGTNDGFVESEIIRPFIKDAFGNDYPDNFTAEYFDNQFASYDKGLQVLKYQNILGTYSNPKKNFKFQLALDILKKSLVARQYIFSKYFKIFIDEYQDSDKDMHNLFMYLKDQLKIKLFIVGDPKQSIYIWRGAEPENFNGLIENSTDFNKYHLT
As for B1, the binding result in assay [1] is “binds”.

B2: GajB (enzyme, UniProt J8HQ06 1-494)
chain: MSREQIIKDGGNILVTAGAGSGKTTILVSKIEADLKENKTHYSIAAVTFTNKAAKEIEGRLGYSSRGNFIGTNDGFVESEIIRPFIKDAFGNDYPDNFTAEYFDNQFASYDKGLQVLKYQNILGTYSNPKKNFKFQLALDILKKSLVARQYIFSKYFKIFIDEYQDSDKDMHNLFMYLKDQLKIKLFIVGDPKQSIYIWRGAEPENFNGLIENSTDFNKYHLTSNFRCCQDIQNYSNLFNEETRSLIKEKNEVQNVISIADDMPISDILLKLTEEKQVLNIEAELVILVRRRNQAIEIMKELNEEGFNFIFIPQTPLDRATPNATLLKEVIKYVKNDRYSIYDLAAEIVGNLSSREIKEIQKIINELLVPNINQVLINQVLINLFAKLEITLDTREITAFTEVMMTNEFDIAFDTNEYLHKIFTVHSAKGLEFNQVIITASDYNVHYNRDTNEHYVATTRAKDKLIVIMDNKKYSDYIETLMKELKIKNIIKSI
With B2, the binding entry in assay [2] and in assay [3] was “binds” in each case.
